From article PMC3783399
Results are given in words; binding and its absence hold for the method and conditions named. Binding seen in cells or lysates may run through a third protein. Some results given as binding are weak or reduced against the parent protein; the word gives no strength. Sequences can lack the tags named with a protein.

By UniProt entry, the sequences of proteins in these tests, tags left out.
UniProt Q92993: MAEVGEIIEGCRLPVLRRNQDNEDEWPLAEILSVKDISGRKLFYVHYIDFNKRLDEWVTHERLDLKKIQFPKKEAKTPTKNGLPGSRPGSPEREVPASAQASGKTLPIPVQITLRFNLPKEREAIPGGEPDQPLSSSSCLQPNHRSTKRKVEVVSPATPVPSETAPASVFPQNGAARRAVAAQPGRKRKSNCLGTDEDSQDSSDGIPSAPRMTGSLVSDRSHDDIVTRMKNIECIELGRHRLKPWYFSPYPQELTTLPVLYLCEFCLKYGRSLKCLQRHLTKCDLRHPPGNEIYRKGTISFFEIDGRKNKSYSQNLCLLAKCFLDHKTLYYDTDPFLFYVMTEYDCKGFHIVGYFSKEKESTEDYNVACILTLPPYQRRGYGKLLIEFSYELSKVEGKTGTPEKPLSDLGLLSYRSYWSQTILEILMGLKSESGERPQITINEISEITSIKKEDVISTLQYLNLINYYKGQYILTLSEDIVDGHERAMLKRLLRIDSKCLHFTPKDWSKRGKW

Molecular target: myc-Tip60-YN155 (Tip60 with the YN155 BiFC fragment at its C-terminus) (UniProt Q92993)
Test: split reporter; BiFC read by confocal microscopy in HEK293 cells cotransfected with the YC and YN fusion constructs (HA-Fe65 cotransfected for APP-YC with Tip60-YN); fluorescence maturation 10 hours at 30°C

- binding: binds
B1: HA-Fe65 (protein, UniProt O00213 1-710)
chain: MSVPSSLSQSAINANSHGGPALSLPLPLHAAHNQLLNAKLQATAVGPKDLRSAMGEGGGPEPGPANAKWLKEGQNQLRRAATAHRDQNRNVTLTLAEEASQEPEMAPLGPKGLIHLYSELELSAHNAANRGLRGPGLIISTQEQGPDEGEEKAAGEAEEEEEDDDDEEEEEDLSSPPGLPEPLESVEAPPRPQALTDGPREHSKSASLLFGMRNSAASDEDSSWATLSQGSPSYGSPEDTDSFWNPNAFETDSDLPAGWMRVQDTSGTYYWHIPTGTTQWEPPGRASPSQGSSPQEESQLTWTGFAHGEGFEDGEFWKDEPSDEAPMELGLKEPEEGTLTFPAQSLSPEPLPQEEEKLPPRNTNPGIKCFAVRSLGWVEMTEEELAPGRSSVAVNNCIRQLSYHKNNLHDPMSGGWGEGKDLLLQLEDETLKLVEPQSQALLHAQPIISIRVWGVGRDSGRERDFAYVARDKLTQMLKCHVFRCEAPAKNIATSLHEICSKIMAERRNARCLVNGLSLDHSKLVDVPFQVEFPAPKNELVQKFQVYYLGNVPVAKPVGVDVINGALESVLSSSSREQWTPSHVSVAPATLTILHQQTEAVLGECRVRFLSFLAVGRDVHTFAFIMAAGPASFCCHMFWCEPNAASLSEAVQAACMLRYQKCLDARSQASTSCLPAPPAESVARRVGWTVRRGVQSLWGSLKPKRLGAHTP
